# Measured values from article PMC11555233.
# Amino acid sequences for entries named in this document (tags omitted). A change or cut given only in a name is not applied to a line headed by its entry. Chains listed by the source or under a name are the forms on record and can include a tag or linker.
# UniProt Q13485: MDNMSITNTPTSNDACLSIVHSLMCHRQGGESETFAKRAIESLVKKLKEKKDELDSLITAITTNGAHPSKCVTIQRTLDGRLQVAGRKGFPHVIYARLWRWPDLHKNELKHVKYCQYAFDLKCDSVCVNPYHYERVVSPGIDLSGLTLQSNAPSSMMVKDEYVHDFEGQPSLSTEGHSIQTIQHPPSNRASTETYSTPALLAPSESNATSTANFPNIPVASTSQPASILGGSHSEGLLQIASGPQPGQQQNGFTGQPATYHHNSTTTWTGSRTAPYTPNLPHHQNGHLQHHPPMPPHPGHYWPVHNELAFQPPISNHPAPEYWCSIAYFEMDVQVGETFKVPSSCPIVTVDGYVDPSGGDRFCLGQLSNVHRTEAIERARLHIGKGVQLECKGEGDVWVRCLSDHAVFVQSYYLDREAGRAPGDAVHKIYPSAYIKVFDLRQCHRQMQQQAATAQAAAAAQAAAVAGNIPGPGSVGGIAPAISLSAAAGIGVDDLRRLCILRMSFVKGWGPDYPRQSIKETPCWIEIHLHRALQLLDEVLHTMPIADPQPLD
# Flag-TurboID-SMAD4-2LA (Q13485, form named): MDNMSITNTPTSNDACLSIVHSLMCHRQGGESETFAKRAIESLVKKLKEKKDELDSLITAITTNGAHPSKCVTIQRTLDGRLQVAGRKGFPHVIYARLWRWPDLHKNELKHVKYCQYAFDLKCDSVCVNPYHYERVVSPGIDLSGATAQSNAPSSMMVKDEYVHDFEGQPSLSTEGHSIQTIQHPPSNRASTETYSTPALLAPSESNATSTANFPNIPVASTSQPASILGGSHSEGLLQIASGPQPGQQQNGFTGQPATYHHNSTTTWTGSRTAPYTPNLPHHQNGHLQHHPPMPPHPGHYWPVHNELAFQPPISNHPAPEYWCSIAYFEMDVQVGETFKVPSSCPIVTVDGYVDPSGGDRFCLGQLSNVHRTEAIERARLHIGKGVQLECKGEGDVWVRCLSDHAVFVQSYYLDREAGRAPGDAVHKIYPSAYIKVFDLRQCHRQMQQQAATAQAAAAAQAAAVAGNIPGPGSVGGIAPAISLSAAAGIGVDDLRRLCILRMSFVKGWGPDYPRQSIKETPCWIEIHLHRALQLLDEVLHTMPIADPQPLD
# UniProt P13010: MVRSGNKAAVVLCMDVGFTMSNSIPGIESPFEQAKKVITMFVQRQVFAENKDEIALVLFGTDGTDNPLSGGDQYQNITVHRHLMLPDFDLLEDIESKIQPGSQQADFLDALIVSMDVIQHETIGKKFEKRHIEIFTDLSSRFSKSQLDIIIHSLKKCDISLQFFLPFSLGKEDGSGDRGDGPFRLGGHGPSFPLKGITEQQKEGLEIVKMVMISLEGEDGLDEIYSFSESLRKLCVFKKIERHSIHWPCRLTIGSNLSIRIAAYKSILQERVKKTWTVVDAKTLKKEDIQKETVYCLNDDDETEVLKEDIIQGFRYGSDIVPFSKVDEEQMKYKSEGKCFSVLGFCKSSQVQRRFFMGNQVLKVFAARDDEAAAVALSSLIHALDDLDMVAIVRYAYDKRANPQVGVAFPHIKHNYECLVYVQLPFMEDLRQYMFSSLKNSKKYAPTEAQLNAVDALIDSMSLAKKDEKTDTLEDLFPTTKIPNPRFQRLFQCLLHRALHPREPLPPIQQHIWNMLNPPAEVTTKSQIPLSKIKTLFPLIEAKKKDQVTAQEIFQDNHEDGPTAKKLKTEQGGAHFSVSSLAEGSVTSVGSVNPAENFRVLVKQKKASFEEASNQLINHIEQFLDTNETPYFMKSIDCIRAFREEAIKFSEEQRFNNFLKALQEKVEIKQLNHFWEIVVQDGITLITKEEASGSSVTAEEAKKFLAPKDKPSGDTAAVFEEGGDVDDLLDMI
# UniProt P09874: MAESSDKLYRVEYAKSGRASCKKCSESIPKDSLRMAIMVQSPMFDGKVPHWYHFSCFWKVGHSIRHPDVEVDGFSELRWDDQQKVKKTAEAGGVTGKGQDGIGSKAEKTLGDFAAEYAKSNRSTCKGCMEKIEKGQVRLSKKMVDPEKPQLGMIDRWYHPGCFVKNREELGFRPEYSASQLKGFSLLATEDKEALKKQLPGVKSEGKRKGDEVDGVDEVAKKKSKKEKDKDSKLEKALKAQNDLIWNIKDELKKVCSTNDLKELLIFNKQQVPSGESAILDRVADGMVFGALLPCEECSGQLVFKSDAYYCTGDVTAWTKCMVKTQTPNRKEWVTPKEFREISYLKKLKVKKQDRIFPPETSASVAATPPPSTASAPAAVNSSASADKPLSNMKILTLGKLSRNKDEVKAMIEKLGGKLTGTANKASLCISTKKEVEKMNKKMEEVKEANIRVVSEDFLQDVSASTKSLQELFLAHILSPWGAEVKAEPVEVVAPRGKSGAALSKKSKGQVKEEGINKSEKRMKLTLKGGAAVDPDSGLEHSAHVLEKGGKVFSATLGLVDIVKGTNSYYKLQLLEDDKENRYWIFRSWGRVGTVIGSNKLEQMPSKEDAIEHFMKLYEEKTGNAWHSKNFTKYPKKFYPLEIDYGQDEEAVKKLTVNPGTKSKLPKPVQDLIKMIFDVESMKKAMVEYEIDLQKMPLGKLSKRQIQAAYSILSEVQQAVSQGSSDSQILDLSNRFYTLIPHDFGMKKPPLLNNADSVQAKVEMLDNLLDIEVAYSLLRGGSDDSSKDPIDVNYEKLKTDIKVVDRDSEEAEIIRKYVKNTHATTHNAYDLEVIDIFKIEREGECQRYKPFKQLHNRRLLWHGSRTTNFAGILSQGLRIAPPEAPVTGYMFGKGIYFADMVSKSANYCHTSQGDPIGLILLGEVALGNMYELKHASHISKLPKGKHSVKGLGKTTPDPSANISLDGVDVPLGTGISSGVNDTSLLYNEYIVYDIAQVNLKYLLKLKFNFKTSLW
# Molecular target: Flag-TurboID-SMAD4-2LA (UniProt Q13485)
# Assay: proximity labelling; TurboID fused to nuclear SMAD4-2LA in transfected HEK293FT cells, with or without irradiation; NETN lysate on streptavidin beads at 4 °C overnight, then mass spectrometry
row,Substance,binding
1,XRCC5 (from UniProt P13010 1-732),binds
2,endogenous PARP1 (from UniProt P09874 1-1014),binds

# No constants are given. Whether binding was seen depends on the method and setting. Binding seen in cells or lysates may run through a third protein. Here binding means that the protein was enriched with, or labelled near, the bait; the list need not be complete.
